According to US8936807B2 (Lipopeptide AB, priority 2003, dated 2015):
Where a sequence shows no end group, the ends are not given.

Assay: peptide made by a vendor (Fmoc solid-phase peptide synthesis)
Conditions: whole synthesis, HPLC and area integration

For LLGDFFRKSKEKIGKEFKRIVQRIKDFLRNLVPRTES, the “final HPLC purity” value (TFA salt, run 1) was 99%, the “final HPLC purity” value (TFA salt, run 2) was 98% and the “final HPLC purity” value (acetate salt) was 99%.
